The target in this experiment is DNA (cytosine-5)-methyltransferase 1 (DNMT1) (human (endogenous in iSLK-BAC16)) (UniProt P26358). The experiment in a line: co-IP; endogenous proteins in extracts of iSLK-BAC16 cells treated with 0 or 72.5 uM genipin for 48 h; RIPA lysis buffer; IP with 2 ug anti-DNMT1, anti-DNMT3a or anti-KSHV ORF73 antibody at 4°C overnight, protein-A/G-Sepharose beads, three washes with lysis buffer; western blot.

The chains behind the UniProt entries cited, without tags or fusion partners.
UniProt P26358: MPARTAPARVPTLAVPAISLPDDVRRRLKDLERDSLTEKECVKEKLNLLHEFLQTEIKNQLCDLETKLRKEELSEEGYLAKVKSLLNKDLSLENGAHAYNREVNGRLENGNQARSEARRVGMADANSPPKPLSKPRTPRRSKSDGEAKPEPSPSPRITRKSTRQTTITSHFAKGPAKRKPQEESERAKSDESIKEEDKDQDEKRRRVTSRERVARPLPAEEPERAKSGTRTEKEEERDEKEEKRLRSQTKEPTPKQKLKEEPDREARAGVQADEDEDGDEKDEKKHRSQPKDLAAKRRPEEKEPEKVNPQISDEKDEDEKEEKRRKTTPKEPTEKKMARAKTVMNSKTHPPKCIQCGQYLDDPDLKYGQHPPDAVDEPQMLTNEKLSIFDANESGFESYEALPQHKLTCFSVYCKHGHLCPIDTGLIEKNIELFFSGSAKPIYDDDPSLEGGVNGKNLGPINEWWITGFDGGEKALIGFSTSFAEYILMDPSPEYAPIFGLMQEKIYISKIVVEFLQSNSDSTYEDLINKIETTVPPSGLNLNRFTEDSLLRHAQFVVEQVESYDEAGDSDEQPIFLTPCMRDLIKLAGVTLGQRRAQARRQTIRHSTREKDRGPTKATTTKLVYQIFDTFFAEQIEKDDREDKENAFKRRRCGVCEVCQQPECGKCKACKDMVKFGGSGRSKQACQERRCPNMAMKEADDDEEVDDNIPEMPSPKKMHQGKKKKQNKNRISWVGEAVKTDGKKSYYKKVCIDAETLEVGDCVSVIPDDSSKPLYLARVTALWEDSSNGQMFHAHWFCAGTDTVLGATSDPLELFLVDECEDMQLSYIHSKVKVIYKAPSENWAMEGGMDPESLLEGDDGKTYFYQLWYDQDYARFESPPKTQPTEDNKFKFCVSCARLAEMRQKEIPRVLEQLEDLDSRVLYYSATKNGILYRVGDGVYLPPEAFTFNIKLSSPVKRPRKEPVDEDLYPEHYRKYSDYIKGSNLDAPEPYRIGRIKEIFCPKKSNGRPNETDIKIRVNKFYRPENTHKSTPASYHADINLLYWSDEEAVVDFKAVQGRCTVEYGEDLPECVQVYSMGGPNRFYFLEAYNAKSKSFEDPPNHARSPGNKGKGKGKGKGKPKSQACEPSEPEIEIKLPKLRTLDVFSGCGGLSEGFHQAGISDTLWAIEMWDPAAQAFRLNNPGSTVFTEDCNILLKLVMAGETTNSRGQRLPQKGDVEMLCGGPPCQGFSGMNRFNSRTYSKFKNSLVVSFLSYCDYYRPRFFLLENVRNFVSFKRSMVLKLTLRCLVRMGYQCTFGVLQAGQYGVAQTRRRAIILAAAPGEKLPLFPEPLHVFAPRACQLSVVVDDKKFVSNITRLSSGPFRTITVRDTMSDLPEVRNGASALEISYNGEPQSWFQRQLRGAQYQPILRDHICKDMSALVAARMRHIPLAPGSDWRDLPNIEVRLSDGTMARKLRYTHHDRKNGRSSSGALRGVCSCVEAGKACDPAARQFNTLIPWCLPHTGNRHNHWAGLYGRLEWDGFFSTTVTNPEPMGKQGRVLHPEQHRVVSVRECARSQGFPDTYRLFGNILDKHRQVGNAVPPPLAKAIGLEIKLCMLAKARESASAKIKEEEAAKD
UniProt Q9QR71: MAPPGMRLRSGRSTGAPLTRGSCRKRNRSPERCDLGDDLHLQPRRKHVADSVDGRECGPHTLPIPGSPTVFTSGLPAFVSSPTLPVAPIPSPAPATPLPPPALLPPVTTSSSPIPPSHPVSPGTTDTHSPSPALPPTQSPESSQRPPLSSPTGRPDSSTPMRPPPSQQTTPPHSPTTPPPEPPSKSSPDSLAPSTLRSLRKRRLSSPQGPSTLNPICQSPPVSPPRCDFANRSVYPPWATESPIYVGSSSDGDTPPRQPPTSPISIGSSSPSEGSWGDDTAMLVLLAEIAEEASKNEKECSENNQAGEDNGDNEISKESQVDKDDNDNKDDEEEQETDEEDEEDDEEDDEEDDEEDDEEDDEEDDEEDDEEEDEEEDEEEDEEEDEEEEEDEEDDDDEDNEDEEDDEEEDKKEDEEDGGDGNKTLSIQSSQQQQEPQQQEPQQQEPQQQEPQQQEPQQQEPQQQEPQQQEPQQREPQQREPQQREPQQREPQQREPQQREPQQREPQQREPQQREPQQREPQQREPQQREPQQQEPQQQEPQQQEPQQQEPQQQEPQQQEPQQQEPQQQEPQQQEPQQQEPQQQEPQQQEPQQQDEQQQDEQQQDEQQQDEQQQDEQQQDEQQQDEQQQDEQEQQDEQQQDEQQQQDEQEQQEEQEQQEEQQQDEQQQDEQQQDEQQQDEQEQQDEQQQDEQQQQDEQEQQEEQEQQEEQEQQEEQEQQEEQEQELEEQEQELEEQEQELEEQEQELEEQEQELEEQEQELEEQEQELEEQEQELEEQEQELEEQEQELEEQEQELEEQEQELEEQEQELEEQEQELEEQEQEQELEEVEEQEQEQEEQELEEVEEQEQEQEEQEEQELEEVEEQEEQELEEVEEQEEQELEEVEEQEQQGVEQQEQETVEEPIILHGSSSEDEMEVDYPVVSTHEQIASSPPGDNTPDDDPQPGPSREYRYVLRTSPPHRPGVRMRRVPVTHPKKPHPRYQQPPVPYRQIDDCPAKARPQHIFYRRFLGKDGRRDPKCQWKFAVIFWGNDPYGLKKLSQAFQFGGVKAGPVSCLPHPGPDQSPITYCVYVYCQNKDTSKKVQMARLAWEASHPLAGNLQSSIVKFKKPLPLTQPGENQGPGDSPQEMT

For one substance, binding results are on record in PMC5063574.

Results are given in words; binding and its absence hold for the method and conditions named. Binding seen in cells or lysates may run through a third protein. Some entries that bind do so weakly or less than the wild type.

Take “KSHV latency-associated nuclear antigen (LANA) (from UniProt Q9QR71 1-1129)”: the binding entry is “binds”.
